Experimental data published in US20030100058A1.
Results are given in words; binding and its absence hold for the method and conditions named. A result given as binding can be weak or reduced; the word gives no strength.

Tests used:
[1] = biological target: Human G-protein Chemokine Receptor (CCR5) HDGNR10 (human); experiment: membrane ELISA, CCR5 CHO plasma membranes
[2] = biological target: Human G-protein Chemokine Receptor (CCR5) HDGNR10 (human); experiment: FACS, hybridoma supernatant on CCR5 CHO cells against vector control CHO cells

binding [1]: binds | binding [2]: binds
B1: XF11.1D8 (antibody, V domains shown)
VH: QVQLQESGPGLVKPSETLSLTCTVSGGSISSFYWSWIRQPAGKGLDWIGRIYTSGNTNYNPSLKSRVTMSVDTSKNRFSLKLSSVTAADTAVYYCARDRGSSWYPDAFDIWGQGTMVTVSS
VL: DIVLTHSPGTLSLSPGERATLSCRASQRVTSSCLAWYQQKPGQAPRLLIYGTSSRATGIPDRFSGSGSGTDFTLTISRLEPEDFAVYYCQQYVSSPLTFGQGTRLEIKR
